# Measurements reported in the supplement of paper PMC12819154, “High-throughput peptide-centric local stability assay extends protein–ligand identification to membrane proteins, tissues and bacteria” (Nature Structural & Molecular Biology, 2025).
# Chains of the proteins cited; added tags and fusions are not shown. Lines headed by an entry give the natural chain unless they say otherwise; changes in a name come on top.
# UniProt Q09472, whole entry: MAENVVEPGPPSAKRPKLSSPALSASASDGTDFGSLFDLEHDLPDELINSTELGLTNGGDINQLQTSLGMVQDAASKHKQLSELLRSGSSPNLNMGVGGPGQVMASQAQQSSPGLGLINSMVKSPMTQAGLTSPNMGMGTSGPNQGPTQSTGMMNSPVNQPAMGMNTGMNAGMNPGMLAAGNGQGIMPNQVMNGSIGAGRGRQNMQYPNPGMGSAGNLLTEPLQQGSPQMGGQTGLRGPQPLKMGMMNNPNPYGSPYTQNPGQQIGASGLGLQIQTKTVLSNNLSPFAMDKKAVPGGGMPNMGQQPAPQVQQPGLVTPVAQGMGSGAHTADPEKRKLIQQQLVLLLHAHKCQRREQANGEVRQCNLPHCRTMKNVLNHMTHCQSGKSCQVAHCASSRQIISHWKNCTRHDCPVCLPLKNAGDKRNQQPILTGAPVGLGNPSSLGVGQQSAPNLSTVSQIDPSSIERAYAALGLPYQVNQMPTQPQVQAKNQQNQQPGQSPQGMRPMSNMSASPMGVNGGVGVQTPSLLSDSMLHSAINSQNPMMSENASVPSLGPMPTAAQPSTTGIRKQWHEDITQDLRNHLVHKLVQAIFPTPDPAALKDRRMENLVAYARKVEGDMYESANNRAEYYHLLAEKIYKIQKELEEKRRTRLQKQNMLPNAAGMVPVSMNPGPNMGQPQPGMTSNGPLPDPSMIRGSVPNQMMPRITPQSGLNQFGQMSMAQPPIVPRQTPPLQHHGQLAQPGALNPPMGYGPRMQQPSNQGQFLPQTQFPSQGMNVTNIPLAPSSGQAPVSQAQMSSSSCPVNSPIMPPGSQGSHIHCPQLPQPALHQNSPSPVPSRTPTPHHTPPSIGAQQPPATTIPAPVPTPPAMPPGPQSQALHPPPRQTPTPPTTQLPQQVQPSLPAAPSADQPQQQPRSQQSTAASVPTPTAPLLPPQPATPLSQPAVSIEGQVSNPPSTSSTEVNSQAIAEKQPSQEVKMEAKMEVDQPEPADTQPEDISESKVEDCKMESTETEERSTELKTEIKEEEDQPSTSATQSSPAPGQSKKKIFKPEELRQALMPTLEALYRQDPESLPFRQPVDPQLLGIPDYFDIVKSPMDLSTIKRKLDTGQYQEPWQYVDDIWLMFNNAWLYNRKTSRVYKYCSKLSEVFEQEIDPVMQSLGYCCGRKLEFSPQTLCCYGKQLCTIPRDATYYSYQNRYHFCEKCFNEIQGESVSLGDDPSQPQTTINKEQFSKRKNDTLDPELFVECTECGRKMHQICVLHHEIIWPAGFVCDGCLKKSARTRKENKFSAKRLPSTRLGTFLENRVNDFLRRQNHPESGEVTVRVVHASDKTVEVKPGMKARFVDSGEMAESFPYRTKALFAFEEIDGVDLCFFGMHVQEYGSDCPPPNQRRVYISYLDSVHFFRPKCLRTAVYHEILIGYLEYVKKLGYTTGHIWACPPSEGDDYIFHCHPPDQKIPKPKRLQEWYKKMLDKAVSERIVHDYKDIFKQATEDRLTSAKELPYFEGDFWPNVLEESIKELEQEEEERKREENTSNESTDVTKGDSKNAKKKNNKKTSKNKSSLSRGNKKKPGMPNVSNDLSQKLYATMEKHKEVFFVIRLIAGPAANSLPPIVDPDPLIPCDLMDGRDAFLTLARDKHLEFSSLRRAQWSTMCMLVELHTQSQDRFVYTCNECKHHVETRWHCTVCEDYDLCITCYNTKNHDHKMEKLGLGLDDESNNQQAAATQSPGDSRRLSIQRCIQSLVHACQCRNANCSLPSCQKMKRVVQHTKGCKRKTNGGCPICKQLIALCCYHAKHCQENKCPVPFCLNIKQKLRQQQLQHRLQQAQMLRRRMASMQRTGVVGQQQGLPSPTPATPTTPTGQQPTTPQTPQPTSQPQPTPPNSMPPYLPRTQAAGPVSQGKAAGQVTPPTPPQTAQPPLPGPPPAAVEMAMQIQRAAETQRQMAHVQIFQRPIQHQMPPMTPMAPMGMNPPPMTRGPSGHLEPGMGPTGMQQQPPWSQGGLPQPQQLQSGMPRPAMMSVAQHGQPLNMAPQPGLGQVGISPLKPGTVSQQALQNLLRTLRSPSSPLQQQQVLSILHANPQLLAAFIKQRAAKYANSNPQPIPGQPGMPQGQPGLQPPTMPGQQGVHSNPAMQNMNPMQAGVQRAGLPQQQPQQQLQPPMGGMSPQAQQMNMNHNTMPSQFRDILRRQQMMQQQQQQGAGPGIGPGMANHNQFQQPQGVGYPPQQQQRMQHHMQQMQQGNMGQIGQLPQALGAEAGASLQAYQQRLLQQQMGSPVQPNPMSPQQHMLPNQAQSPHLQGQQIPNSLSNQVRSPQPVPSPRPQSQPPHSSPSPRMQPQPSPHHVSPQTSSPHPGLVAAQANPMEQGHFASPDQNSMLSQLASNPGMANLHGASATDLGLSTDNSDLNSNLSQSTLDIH
# UniProt Q02880: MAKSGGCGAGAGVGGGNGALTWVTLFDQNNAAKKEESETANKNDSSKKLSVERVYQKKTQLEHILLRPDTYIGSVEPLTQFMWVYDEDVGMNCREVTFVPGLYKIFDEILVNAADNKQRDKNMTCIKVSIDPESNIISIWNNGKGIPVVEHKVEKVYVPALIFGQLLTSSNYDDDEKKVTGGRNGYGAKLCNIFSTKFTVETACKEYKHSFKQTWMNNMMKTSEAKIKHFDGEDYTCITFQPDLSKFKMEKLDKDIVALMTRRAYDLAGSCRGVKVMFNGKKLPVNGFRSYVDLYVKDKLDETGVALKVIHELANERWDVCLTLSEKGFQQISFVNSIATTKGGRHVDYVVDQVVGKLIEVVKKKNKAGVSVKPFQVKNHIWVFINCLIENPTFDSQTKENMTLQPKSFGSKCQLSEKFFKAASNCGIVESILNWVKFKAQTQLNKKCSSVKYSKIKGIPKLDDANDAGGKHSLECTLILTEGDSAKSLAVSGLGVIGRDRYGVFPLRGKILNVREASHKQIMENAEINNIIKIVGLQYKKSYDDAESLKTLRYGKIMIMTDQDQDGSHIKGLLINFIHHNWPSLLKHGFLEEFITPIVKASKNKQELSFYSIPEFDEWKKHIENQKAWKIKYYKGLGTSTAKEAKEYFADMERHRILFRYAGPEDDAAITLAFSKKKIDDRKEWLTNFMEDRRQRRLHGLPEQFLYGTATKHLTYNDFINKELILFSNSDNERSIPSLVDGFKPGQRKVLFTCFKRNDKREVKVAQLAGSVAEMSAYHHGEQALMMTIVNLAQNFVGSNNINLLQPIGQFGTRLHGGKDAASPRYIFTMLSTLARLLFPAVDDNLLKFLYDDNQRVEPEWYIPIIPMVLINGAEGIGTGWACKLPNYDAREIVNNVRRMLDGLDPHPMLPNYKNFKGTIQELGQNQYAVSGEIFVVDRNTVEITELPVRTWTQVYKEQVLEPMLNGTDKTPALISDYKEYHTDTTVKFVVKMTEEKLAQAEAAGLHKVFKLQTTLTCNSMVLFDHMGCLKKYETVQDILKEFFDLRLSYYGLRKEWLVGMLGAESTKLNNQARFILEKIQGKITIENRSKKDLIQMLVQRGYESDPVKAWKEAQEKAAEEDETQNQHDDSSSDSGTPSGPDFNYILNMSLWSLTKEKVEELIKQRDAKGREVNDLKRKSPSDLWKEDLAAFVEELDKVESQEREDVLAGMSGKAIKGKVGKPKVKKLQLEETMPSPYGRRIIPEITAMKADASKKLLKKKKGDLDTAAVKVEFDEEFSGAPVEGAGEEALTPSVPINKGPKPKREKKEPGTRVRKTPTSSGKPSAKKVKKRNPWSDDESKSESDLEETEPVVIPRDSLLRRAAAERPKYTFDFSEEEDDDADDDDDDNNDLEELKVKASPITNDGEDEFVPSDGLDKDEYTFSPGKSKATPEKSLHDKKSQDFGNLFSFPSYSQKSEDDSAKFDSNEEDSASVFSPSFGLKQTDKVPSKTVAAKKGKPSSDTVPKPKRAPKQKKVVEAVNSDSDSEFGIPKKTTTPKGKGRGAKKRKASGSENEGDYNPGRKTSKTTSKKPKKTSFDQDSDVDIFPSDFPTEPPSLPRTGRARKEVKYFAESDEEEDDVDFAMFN
# UniProt Q03426, whole entry: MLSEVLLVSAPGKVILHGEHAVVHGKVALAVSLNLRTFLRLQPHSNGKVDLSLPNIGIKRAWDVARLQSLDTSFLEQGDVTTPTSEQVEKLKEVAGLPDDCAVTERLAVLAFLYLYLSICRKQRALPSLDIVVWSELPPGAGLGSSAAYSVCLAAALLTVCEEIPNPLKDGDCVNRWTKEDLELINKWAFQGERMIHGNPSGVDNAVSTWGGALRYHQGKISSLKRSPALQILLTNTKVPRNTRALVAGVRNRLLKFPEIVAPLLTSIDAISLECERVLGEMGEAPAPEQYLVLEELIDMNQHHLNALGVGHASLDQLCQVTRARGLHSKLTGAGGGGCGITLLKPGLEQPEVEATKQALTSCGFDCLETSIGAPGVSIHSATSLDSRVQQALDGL
# UniProt Q13029: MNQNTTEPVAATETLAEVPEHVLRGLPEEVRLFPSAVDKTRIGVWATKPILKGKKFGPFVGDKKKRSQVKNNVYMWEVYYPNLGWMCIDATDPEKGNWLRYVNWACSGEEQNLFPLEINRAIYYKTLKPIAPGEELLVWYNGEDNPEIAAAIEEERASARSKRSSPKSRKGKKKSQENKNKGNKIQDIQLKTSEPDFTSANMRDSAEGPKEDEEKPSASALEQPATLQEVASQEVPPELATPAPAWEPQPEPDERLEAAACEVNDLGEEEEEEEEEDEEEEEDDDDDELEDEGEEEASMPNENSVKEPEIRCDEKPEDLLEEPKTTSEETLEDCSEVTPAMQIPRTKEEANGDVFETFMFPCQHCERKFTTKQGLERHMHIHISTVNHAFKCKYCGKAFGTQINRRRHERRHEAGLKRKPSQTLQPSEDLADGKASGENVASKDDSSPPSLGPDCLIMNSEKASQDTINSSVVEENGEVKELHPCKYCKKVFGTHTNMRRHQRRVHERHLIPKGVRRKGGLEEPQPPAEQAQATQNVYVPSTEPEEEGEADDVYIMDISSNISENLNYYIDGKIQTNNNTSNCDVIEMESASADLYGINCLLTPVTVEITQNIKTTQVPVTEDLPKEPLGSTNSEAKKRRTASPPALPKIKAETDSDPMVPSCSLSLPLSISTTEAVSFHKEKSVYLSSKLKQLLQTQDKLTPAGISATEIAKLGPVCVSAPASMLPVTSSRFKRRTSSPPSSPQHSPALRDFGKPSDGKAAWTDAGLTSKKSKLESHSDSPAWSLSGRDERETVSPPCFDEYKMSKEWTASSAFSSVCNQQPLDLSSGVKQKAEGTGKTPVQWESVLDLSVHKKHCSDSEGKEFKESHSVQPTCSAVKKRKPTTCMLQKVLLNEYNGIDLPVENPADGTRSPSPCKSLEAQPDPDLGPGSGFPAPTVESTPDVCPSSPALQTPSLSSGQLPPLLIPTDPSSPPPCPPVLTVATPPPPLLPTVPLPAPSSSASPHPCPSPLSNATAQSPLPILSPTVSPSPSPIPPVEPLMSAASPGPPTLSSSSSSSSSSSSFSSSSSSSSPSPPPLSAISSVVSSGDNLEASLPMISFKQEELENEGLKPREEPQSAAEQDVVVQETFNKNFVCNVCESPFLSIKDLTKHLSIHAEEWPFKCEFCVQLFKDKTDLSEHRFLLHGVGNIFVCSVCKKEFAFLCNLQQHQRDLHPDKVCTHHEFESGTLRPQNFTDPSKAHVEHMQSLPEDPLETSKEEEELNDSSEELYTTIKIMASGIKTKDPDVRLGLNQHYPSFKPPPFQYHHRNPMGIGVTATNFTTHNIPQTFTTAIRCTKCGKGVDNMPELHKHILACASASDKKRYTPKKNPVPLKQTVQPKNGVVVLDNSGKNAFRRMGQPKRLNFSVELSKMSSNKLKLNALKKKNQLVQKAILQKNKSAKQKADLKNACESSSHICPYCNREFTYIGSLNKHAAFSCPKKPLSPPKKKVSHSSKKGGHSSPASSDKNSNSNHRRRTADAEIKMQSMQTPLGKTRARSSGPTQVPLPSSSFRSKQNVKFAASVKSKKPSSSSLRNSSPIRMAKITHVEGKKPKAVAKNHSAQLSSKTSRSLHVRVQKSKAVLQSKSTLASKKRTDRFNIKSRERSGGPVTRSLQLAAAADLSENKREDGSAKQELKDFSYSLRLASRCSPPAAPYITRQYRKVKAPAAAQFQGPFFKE
# UniProt Q12846: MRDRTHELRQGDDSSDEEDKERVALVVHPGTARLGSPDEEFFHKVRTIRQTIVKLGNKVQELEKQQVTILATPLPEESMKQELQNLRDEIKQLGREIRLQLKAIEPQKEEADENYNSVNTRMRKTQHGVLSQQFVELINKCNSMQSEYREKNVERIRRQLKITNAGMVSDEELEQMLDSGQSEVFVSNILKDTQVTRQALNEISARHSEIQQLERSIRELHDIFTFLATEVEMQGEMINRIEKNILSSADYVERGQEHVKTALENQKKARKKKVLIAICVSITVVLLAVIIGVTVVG
# Some of the results follow. Small differences around the control level are noise.
# Compound: Cc1nc(Nc2ncc(C(=O)Nc3c(C)cccc3Cl)s2)cc(N2CCN(CCO)CC2)n1 [dasatinib]
# Assay: log2 fold change of tryptic peptide abundance, ligand vs vehicle (limited proteolysis) (log2 ratio); higher = more trypsin-susceptible (destabilized)
# Details: ligand concentration: 5 uM; sample: K562 cleared lysate
row,Target,log2 fold change
1,"C1QBP (peptide sequence: AFVDFLSDEIKEER, peptide start residue: 81) (UniProt Q07021)",0.0676
2,"DHX9 (peptide sequence: LQISHEAAACITGLR, peptide start residue: 1090) (UniProt Q08211)",0.112
3,"PLP2 (peptide sequence: HTAAPTDPADGPV, peptide start residue: 140) (UniProt Q04941)",0.000774
4,"FKBP4 (peptide sequence: FQIPPNAELKYELHLK, peptide start residue: 235) (UniProt Q02790)",0.323
5,"UniProt Q02539 (peptide sequence: ALAAAGYDVEK, peptide start residue: 65)",0.0354
6,"GRSF1 (peptide sequence: WVLGALLR, peptide start residue: 6) (UniProt Q12849)",-0.545
7,"HSPA14 (peptide sequence: CLVIEKNGK, peptide start residue: 89) (UniProt Q0VDF9)",0.172
8,"FMR1 (peptide sequence: ENSTHFSQPNSTK, peptide start residue: 360) (UniProt Q06787)",0.13
9,"HSF1 (peptide sequence: KIPLMLNDSGSAHSMPK, peptide start residue: 208) (UniProt Q00613)",0.116
10,"ALDH6A1 (peptide sequence: WLPELVEHAK, peptide start residue: 332) (UniProt Q02252)",-0.311
11,"GTF3C1 (peptide sequence: SSRPFER, peptide start residue: 1017) (UniProt Q12789)",0.366
12,"EP300 (peptide sequence: MESTETEER, peptide start residue: 1007) (UniProt Q09472)",-0.154
13,"UniProt Q09MP3 (peptide sequence: KQKLQNDK, peptide start residue: 307)",0.32
14,"MLLT1 (peptide sequence: EPPPPQKPPPPNSK, peptide start residue: 456) (UniProt Q03111)",0.963
15,"MPP1 (peptide sequence: LPALQMFMR, peptide start residue: 156) (UniProt Q00013)",-0.103
16,"TOP2B (peptide sequence: QTWMNNMMK, peptide start residue: 213) (UniProt Q02880)",0.637
17,"UniProt Q0PNE2 (peptide sequence: EANAGNLKPLFEFVR, peptide start residue: 109)",0.162
18,"NUP160 (peptide sequence: SEDGEIVSTPR, peptide start residue: 949) (UniProt Q12769)",-0.312
19,"SPAG1 (peptide sequence: KDKEACAHLLAITAPK, peptide start residue: 820) (UniProt Q07617)",0.466
20,"ATP7A (peptide sequence: SGACEDHSMAQAGEVVLK, peptide start residue: 157) (UniProt Q04656)",0.218
21,"CHD3 (peptide sequence: EKEMVGALVSDGLDRK, peptide start residue: 1973) (UniProt Q12873)",0.569
22,"UniProt Q12974 (peptide sequence: VCDATYDKAPVEK, peptide start residue: 45)",-0.0934
23,"HMGCS1 (peptide sequence: NNLSYDCIGR, peptide start residue: 80) (UniProt Q01581)",-0.335
24,"RPL6 (peptide sequence: YYPTEDVPR, peptide start residue: 115) (UniProt Q02878)",0.051
25,"UniProt Q02386 (peptide sequence: YQDSVVNIQR, peptide start residue: 118)",-0.285
26,"SF3A3 (peptide sequence: YHEEKER, peptide start residue: 11) (UniProt Q12874)",-0.202
27,"MVK (peptide sequence: LQPHSNGK, peptide start residue: 41) (UniProt Q03426)",-0.295
28,"PRDM2 (peptide sequence: DFGKPSDGK, peptide start residue: 752) (UniProt Q13029)",0.508
29,"STX4 (peptide sequence: QALNEISAR, peptide start residue: 198) (UniProt Q12846)",0.226

# In a second layout: entries from further up
row	Target	log2 fold change
22	UniProt Q12974 (peptide sequence: VCDATYDKAPVEK, peptide start residue: 45)	-0.0934
23	HMGCS1 (peptide sequence: NNLSYDCIGR, peptide start residue: 80) (UniProt Q01581)	-0.335
